Laboratory results as given in article PMC4949242, “Conjugative DNA Transfer Is Enhanced by Plasmid R1 Partitioning Proteins”.
Results are given in words; binding and its absence hold for the method and conditions named. Binding seen in cells or lysates may run through a third protein. Binding calls can cover weak binding; strength is not graded here. Tags and fused reporters may be left off the sequences shown.

How the values were obtained:
[1] = target: T1, ParM with C-terminal FLAG epitope (pMS-CFLAGparM) (plasmid R1 (R1-16), in E. coli) (UniProt P11904); assay: co-IP; E. coli MS411 carrying R1-16 (native levels of Tra proteins) and a FLAG-tagged par allele; 1% formaldehyde cross-linking; capture on anti-FLAG affinity gel overnight at 4°C, elution with FLAG peptide; Western blot with antibodies to Tra proteins (Figure S2)
T1 sequence: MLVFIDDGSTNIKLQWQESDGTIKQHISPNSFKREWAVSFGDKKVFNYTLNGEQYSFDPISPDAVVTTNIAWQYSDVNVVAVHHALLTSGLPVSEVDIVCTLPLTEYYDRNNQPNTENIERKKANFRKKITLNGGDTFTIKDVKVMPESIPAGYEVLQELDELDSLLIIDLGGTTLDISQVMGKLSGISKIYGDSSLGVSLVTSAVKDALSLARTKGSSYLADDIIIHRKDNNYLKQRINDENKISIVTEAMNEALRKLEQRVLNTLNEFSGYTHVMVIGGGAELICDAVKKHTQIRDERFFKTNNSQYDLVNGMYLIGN

[2] = target: T1, ParM with C-terminal FLAG epitope (pMS-CFLAGparM) (plasmid R1 (R1-16), in E. coli); assay: co-IP; E. coli MS411 co-producing one FLAG-tagged Par protein and one Tra protein pairwise from two vectors, without R1-16; 1% formaldehyde cross-linking; capture on anti-FLAG affinity gel, elution with FLAG peptide; Western blot with antibodies to Tra proteins (Figure 6)

Substance	binding [1]	binding [2]
TraC, VirB4-like channel ATPase of plasmid R1 (enzyme)	binds	binds
TraD, type IV coupling protein (T4CP) of plasmid R1	binds	binds
TraI, relaxase/helicase of plasmid R1 (enzyme)	binds	binds
